Amino acid sequences for entries named in this document (tags omitted).
UniProt Q8CJG0: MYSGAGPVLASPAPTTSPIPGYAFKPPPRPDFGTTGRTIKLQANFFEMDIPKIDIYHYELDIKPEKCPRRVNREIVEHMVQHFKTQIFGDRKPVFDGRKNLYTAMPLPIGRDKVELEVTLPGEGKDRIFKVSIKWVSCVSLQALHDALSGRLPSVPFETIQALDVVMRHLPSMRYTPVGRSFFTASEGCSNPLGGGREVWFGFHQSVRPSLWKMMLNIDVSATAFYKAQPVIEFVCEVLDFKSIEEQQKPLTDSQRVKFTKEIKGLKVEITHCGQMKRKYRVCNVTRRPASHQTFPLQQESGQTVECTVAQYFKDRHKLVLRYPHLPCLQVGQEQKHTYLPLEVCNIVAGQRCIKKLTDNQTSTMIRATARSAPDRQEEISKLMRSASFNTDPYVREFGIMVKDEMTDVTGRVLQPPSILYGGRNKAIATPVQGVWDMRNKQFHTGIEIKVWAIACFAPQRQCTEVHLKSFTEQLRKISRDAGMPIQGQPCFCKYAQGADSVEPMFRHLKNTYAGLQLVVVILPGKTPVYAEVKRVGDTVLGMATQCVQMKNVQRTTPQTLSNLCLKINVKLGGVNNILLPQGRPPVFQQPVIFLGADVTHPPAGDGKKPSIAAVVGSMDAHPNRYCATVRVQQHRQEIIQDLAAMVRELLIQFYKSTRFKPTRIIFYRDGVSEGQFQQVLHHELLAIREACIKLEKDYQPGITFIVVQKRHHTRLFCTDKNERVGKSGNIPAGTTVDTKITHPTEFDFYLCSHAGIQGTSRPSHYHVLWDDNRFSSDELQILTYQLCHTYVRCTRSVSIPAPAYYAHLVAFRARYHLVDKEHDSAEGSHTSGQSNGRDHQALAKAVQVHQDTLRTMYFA
UniProt Q6ZQ08: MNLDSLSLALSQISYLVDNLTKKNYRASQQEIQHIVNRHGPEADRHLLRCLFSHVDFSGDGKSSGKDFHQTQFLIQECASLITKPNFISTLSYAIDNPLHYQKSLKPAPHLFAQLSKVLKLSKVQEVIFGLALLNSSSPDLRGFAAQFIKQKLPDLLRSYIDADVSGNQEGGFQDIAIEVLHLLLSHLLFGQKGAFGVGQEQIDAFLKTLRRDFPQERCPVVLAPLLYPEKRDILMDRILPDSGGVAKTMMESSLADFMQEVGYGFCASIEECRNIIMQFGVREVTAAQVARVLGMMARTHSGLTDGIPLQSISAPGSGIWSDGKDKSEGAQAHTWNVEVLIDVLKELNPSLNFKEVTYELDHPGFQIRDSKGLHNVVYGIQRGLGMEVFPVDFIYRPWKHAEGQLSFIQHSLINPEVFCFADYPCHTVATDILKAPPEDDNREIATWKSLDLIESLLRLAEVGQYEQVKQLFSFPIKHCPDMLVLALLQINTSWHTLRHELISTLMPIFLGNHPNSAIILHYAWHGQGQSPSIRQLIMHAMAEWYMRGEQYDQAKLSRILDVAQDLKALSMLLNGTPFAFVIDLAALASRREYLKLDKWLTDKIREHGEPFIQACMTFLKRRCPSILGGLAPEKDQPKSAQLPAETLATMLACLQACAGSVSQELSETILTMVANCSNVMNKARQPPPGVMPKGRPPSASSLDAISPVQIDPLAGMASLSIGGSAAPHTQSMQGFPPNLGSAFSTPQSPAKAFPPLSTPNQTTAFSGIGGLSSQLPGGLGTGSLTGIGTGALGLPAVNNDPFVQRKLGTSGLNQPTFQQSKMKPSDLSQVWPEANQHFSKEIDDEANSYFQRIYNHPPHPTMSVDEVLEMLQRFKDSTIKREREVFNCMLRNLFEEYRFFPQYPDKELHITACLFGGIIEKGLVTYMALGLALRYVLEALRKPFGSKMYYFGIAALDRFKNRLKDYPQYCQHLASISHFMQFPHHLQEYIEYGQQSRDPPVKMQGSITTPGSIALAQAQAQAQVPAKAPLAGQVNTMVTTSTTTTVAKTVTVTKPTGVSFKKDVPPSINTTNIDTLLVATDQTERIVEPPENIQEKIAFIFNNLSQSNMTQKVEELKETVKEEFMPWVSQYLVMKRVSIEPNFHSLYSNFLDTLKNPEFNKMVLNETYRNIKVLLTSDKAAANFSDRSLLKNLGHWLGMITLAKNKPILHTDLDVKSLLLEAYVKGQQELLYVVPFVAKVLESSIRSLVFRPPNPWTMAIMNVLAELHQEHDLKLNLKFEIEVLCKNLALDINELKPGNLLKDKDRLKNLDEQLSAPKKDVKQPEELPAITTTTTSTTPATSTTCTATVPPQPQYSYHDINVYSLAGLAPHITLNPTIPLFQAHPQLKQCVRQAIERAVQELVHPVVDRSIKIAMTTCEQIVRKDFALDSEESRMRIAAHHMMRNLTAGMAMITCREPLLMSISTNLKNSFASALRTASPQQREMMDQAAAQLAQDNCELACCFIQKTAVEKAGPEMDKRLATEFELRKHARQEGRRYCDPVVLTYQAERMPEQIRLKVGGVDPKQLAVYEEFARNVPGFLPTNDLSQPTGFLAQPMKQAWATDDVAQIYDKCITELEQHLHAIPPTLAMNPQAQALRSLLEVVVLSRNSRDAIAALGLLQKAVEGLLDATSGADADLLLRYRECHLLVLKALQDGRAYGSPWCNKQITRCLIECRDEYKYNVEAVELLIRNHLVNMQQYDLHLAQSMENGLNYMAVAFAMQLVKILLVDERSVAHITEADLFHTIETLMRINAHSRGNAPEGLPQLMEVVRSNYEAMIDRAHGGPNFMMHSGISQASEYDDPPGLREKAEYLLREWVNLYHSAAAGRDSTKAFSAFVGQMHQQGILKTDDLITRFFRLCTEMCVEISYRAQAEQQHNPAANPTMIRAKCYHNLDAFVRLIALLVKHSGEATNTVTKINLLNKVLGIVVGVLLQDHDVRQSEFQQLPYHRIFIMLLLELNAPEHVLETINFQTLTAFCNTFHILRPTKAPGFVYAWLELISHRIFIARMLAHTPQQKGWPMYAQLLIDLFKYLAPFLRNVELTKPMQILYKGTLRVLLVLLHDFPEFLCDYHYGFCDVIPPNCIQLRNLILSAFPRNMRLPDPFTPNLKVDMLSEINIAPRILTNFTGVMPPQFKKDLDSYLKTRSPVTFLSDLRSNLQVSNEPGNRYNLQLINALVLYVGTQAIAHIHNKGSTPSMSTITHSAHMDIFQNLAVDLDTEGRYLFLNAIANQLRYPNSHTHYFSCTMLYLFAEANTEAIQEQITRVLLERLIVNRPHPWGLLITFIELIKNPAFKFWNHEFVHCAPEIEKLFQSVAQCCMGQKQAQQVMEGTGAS

In publication PMC5662751:

Molecular target: Argonaute 2 (Ago2), mouse, endogenous (mouse (endogenous in RAW 264.7 and P19)) (UniProt Q8CJG0)
Test: affinity purification with mass spectrometry; IP of endogenous Ago2 (anti-Ago2) from mouse RAW 264.7 cell extracts, undigested or totally digested with RNase A (10 mg/ml, 30 min, room temperature); label-free quantitative LC-MS/MS; IgG IP as control

binding: binds
Substance: CCR4-NOT Transcription Complex Subunit 1 (CNOT1), mouse, endogenous (from UniProt Q6ZQ08 1-2375)

Results are given in words; binding and its absence hold for the method and conditions named. Binding seen in cells or lysates may run through a third protein. Here binding means that the protein was enriched with, or labelled near, the bait; the list need not be complete.
